Assay results taken from the supplement of paper PMC10849652.
Some of the results follow.

Sequences of proteins named here, by UniProt entry; tags and fusion partners are left off. A change or cut given only in a name is not applied to a line headed by its entry.
UniProt Q9UEG4: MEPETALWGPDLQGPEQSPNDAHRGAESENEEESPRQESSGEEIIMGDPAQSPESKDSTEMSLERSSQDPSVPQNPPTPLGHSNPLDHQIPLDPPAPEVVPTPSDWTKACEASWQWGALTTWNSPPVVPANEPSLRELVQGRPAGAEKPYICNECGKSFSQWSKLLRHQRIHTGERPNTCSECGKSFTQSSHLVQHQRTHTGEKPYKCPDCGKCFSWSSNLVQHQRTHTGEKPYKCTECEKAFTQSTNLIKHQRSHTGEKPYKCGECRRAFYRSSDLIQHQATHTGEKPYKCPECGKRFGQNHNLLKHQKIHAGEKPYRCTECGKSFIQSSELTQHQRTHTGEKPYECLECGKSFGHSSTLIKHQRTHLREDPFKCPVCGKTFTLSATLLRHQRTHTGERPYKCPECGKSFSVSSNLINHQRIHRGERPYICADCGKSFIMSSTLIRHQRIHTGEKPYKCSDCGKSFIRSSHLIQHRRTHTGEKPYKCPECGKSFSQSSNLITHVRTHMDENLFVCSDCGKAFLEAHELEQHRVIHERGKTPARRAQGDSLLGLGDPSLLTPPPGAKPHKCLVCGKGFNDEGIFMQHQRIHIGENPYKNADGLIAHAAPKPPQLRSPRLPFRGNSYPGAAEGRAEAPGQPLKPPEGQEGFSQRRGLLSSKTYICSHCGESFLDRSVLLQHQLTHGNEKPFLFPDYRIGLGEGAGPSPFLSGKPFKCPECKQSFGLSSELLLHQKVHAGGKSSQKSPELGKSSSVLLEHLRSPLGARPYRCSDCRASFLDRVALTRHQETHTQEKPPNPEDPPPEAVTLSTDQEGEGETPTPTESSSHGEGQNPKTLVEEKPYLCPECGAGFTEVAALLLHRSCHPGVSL
UniProt Q8TCN5: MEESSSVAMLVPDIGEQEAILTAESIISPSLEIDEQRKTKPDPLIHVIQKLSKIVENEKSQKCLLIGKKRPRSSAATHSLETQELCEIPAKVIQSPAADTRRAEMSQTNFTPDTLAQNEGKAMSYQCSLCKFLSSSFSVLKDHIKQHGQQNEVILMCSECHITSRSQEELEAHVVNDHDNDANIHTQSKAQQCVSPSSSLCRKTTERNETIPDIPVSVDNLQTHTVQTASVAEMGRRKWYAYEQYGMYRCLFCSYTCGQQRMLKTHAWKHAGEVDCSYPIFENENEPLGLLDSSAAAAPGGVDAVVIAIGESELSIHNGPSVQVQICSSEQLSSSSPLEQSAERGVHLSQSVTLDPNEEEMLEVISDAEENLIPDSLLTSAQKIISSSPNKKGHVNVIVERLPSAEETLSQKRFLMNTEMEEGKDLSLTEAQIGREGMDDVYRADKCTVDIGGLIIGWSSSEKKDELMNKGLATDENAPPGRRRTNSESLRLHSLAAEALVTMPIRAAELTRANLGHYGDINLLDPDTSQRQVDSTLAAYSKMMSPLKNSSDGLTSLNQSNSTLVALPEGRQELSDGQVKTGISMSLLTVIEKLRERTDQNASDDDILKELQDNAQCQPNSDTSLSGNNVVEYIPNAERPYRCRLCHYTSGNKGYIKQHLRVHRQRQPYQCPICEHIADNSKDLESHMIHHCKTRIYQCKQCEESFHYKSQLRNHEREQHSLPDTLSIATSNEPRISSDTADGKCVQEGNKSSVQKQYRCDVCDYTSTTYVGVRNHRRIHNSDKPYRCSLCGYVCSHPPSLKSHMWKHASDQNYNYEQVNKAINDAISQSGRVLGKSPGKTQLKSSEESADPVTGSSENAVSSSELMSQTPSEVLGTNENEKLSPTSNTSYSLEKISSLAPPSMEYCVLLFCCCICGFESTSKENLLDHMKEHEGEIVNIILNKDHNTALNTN
UniProt Q9UQR1: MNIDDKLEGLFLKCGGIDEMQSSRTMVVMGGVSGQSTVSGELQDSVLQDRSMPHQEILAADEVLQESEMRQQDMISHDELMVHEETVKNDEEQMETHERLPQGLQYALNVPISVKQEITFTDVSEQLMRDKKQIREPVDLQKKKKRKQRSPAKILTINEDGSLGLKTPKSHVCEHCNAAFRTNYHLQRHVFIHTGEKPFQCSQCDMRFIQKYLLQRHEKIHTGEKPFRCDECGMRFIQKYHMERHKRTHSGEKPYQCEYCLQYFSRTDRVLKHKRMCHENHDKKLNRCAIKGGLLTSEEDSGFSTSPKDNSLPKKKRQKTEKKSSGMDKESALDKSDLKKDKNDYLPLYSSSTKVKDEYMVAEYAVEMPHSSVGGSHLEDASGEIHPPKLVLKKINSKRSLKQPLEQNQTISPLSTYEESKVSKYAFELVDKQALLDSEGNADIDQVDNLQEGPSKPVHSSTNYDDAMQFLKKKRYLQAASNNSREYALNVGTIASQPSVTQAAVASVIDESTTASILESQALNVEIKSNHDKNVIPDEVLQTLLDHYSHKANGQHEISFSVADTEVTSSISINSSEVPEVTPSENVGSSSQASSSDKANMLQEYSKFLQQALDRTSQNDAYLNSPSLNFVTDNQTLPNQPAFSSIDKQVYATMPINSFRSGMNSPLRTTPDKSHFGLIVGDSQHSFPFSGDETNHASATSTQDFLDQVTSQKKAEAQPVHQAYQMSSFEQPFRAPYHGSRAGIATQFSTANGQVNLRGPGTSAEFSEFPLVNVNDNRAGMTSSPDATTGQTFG
UniProt O00488: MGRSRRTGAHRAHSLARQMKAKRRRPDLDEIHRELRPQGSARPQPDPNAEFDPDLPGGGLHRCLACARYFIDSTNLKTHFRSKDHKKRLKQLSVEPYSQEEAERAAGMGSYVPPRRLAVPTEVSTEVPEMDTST
UniProt Q9ULJ6: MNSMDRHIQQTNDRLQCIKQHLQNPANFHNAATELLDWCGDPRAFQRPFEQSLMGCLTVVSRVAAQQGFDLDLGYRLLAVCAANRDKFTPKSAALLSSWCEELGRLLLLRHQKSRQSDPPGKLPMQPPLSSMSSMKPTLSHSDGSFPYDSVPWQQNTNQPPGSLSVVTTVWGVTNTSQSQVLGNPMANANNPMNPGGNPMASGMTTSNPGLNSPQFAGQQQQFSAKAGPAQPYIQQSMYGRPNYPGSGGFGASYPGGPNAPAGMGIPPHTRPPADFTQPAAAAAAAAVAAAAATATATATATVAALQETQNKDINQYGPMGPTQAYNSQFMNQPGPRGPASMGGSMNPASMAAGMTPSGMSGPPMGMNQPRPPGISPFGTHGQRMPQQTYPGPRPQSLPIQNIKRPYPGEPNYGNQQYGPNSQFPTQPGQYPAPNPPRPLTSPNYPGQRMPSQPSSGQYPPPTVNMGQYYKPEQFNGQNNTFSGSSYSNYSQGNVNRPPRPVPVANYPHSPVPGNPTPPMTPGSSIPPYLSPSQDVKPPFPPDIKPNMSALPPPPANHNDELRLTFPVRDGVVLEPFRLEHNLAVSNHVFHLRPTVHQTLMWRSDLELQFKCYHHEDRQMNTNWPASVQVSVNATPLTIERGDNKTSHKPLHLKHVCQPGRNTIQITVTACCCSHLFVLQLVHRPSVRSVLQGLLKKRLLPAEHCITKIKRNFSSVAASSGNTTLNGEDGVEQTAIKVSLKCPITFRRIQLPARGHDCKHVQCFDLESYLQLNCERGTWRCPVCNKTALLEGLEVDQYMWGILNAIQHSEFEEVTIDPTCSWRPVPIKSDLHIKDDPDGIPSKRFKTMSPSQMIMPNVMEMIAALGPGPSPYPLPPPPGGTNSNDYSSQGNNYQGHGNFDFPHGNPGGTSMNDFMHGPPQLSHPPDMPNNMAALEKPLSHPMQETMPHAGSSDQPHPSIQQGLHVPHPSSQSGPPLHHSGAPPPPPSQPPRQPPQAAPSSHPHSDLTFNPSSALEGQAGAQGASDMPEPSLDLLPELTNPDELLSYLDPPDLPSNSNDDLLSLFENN
UniProt Q5VZL5: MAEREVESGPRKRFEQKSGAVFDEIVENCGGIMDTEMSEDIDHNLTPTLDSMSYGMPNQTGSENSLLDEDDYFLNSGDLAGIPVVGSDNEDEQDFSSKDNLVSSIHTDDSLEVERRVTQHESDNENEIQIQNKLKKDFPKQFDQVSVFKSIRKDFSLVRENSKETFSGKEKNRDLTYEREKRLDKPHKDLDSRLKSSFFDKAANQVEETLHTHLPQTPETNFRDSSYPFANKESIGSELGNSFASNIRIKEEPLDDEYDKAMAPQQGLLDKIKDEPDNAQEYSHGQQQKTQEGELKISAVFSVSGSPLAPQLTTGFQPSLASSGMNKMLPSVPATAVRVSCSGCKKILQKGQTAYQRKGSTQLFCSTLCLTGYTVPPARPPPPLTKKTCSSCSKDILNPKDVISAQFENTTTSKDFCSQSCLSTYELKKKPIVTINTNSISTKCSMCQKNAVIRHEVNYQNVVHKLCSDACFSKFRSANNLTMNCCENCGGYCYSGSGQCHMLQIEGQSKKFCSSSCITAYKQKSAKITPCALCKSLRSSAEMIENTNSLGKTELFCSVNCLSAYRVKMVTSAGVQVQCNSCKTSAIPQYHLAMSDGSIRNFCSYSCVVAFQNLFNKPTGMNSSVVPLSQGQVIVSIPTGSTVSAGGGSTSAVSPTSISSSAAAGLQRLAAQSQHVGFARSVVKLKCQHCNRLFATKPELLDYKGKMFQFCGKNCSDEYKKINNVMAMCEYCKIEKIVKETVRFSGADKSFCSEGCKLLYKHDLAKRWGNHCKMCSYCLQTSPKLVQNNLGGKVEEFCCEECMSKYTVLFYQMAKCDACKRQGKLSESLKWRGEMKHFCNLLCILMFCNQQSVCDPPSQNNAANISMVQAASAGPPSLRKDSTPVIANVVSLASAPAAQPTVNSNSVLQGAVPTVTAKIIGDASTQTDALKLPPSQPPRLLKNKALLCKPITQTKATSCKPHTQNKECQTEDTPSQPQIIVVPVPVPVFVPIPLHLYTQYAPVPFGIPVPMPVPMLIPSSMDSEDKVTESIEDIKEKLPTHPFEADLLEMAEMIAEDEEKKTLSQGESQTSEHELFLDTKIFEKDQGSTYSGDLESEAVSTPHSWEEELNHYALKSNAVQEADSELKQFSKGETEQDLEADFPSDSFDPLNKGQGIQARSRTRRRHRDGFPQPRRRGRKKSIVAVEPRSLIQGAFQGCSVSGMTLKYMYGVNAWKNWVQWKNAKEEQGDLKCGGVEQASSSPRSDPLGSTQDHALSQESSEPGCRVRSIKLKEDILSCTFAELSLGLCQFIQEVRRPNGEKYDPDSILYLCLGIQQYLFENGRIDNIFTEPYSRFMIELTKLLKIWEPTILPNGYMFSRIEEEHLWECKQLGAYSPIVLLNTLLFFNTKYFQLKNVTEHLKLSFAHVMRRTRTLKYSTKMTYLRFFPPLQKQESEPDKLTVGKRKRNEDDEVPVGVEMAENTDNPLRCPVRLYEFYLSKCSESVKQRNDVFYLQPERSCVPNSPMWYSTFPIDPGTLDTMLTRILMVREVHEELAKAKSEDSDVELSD
UniProt Q9Y4E5: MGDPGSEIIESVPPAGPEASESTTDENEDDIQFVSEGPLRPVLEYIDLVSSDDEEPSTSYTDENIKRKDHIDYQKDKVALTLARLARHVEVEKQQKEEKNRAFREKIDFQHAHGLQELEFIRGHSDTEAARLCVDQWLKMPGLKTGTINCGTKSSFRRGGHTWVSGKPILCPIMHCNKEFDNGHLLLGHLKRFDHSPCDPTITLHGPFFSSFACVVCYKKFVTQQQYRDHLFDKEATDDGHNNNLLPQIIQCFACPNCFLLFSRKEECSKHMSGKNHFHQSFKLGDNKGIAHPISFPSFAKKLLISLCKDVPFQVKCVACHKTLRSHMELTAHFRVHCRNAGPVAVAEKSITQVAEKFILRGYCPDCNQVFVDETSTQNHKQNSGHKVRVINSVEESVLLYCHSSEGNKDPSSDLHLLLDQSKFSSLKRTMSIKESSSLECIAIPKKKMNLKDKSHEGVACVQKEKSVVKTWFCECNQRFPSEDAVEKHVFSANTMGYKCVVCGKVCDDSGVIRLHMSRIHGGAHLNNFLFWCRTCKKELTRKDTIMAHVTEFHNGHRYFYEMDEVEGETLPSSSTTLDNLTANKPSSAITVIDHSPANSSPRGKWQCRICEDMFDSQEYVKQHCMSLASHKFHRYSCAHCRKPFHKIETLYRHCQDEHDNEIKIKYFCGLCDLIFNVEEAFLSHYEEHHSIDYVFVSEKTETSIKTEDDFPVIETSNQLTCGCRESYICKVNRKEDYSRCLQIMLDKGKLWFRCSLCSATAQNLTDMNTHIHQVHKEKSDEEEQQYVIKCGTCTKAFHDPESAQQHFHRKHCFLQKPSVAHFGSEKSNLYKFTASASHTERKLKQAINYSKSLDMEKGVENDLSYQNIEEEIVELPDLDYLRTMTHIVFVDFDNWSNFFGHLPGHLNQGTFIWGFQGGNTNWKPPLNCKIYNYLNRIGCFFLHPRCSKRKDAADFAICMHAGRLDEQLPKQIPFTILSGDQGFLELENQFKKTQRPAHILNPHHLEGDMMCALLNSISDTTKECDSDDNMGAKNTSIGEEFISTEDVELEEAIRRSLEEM

Legend:
Experiment in all cases: log2 fold change, soluble protein after heating vs DMSO (PISA); higher = thermal stabilisation; K562 lysate, 10 uM; active = over 0.2 and 3.5 SD of the protein, either way, in both replicates (recomputed)
alvocidib = compound: CN1CC[C@H](c2c(O)cc(O)c3c(=O)cc(-c4ccccc4Cl)oc23)[C@H](O)C1 [alvocidib]
How it was run: (§1)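 Following dounce homogenisation of K562 pellets in PBS pH 7.4 with 1 mM MgCl2, crude extract at 1 mg/mL protein was incubated for 30 min with 10 μM compound. Aliquots were then heated for 3 min over 48°C-58°C and pooled, NP-40 was added to 0.5% at 4°C, and soluble protein was recovered as the supernatant at 21,000xg for 90 min. Channel-sum-equalised TMTpro 16plex LC-MS/MS quantified this protein. Each value, from duplicates, is a log-two fold change in thermal stability relative to solvent controls.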

Tubastatin A = compound: CN1CCc2c(c3ccccc3n2Cc2ccc(C(=O)NO)cc2)C1 [Tubastatin A]
How it was run: as §1

[1] = compound: CNC(=O)C1=CC=CC=C1NC2=NC(=NC=C2Cl)NC3=C(C=C(C=C3)N4CCOCC4)OC
How it was run: as §1

defactinib = compound: CNC(=O)c1ccc(Nc2ncc(C(F)(F)F)c(NCc3nccnc3N(C)S(C)(=O)=O)n2)cc1 [defactinib]
How it was run: as §1

[2] = compound: CNc1nc(-c2ccc3c(N)n[nH]c3c2)cc(N2C[C@@H](C(=O)NC3CCCCC3)CC[C@H]2C)n1
How it was run: as §1

encorafenib = compound: COC(=O)N[C@@H](C)CNc1nccc(-c2cn(C(C)C)nc2-c2cc(Cl)cc(NS(C)(=O)=O)c2F)n1 [encorafenib]
How it was run: as §1

[3] = compound: COC(=O)[C@H](CCSC)NC(=O)C1=C(C=C(C=C1)NC[C@H](CS)N)C2=CC=CC=C2
How it was run: as §1

alisertib = compound: COc1cc(Nc2ncc3c(n2)-c2ccc(Cl)cc2C(c2c(F)cccc2OC)=NC3)ccc1C(=O)O [alisertib]
How it was run: as §1

[4] = compound: COc1cc2nc(-c3cc(F)ccc3O)nc(N[C@@H]3CNC[C@H]3C(C)(C)O)c2cc1OC
How it was run: as §1

gefitinib = compound: COc1cc2ncnc(Nc3ccc(F)c(Cl)c3)c2cc1OCCCN1CCOCC1 [gefitinib]
How it was run: as §1

lapatinib = compound: CS(=O)(=O)CCNCc1ccc(-c2ccc3ncnc(Nc4ccc(OCc5cccc(F)c5)c(Cl)c4)c3c2)o1 [lapatinib]
How it was run: as §1

pictilisib = compound: CS(=O)(=O)N1CCN(Cc2cc3nc(-c4cccc5[nH]ncc45)nc(N4CCOCC4)c3s2)CC1 [pictilisib]
How it was run: as §1

crizotinib = compound: C[C@@H](Oc1cc(-c2cnn(C3CCNCC3)c2)cnc1N)c1c(Cl)ccc(F)c1Cl [crizotinib]
How it was run: as §1

[5] = compound: C[C@H](C1=CC=C(C=C1)C(=O)NC2=C3C=CNC3=NC=C2)N
How it was run: as §1

duvelisib = compound: C[C@H](Nc1ncnc2nc[nH]c12)c1cc2cccc(Cl)c2c(=O)n1-c1ccccc1 [duvelisib]
How it was run: as §1

gandotinib = compound: Cc1cc(Nc2cc(CN3CCOCC3)c3nc(C)c(Cc4ccc(Cl)cc4F)n3n2)n[nH]1 [gandotinib]
How it was run: as §1

tozasertib = compound: Cc1cc(Nc2cc(N3CCN(C)CC3)nc(Sc3ccc(NC(=O)C4CC4)cc3)n2)n[nH]1 [tozasertib]
How it was run: as §1

doramapimod = compound: Cc1ccc(-n2nc(C(C)(C)C)cc2NC(=O)Nc2ccc(OCCN3CCOCC3)c3ccccc23)cc1 [doramapimod]
How it was run: as §1

bafetinib = compound: Cc1ccc(NC(=O)c2ccc(CN3CC[C@H](N(C)C)C3)c(C(F)(F)F)c2)cc1Nc1nccc(-c2cncnc2)n1 [bafetinib]
How it was run: as §1

[6] = compound: Cc1cccc(CC(=O)N2CCc3c2ccc(-c2cn(C)c4ncnc(N)c24)c3F)n1
How it was run: as §1

Measured: log2 fold change

ZNF618 (UniProt Q5T7W0)
inactive: alvocidib -0.041 | Tubastatin A 0.008 | [1] 0.034 | defactinib 0.004 | [2] 0.042 | encorafenib 0.002 | [3] -0.052 | alisertib -0.024 | [4] -0.04 | gefitinib -0.048 | lapatinib 0 | pictilisib 0.012 | crizotinib -0.038 | [5] -0.028 | duvelisib -0.015 | gandotinib 0.065 | tozasertib 0.016 | doramapimod 0.036 | bafetinib -0.036 | [6] 0.041

ZNF24 (UniProt P17028)
inactive: alvocidib 0.041 | Tubastatin A -0.068 | [1] 0.026 | defactinib 0.104 | [2] 0.026 | encorafenib 0.035 | [3] -0.041 | alisertib -0.046 | [4] 0.015 | gefitinib 0.089 | lapatinib 0.079 | pictilisib -0.045 | crizotinib -0.005 | [5] 0.026 | duvelisib -0.04 | gandotinib -0.07 | tozasertib 0.006 | doramapimod 0.085 | bafetinib 0.045 | [6] -0.035

ZNF598 isoform 3 (UniProt Q86UK7)
inactive: alvocidib -0.01 | Tubastatin A -0.095 | [1] 0.025 | defactinib 0.004 | [2] 0.015 | encorafenib 0.004 | [3] -0.039 | alisertib 0.009 | [4] 0.012 | gefitinib 0.007 | lapatinib 0.027 | pictilisib 0.005 | crizotinib 0.006 | [5] -0.01 | duvelisib -0.01 | gandotinib 0.023 | tozasertib 0.048 | doramapimod 0.024 | bafetinib -0.012 | [6] 0.015

ZNF629 (UniProt Q9UEG4)
inactive: alvocidib -0.011 | Tubastatin A -0.028 | [1] 0.043 | defactinib 0.064 | [2] 0.045 | encorafenib -0.014 | [3] -0.086 | alisertib -0.084 | [4] -0.013 | gefitinib -0.064 | lapatinib -0.043 | pictilisib -0.012 | crizotinib 0.009 | [5] 0.021 | duvelisib 0.028 | gandotinib 0.001 | tozasertib -0.065 | doramapimod -0.005 | bafetinib 0.03 | [6] 0.143

ZNF507 (UniProt Q8TCN5)
inactive: alvocidib -0.032 | Tubastatin A -0.029 | [1] -0.001 | defactinib -0.032 | [2] -0.039 | encorafenib -0.017 | [3] 0.08 | alisertib -0.015 | gefitinib 0.018 | pictilisib -0.03 | crizotinib 0.038 | [5] 0.006 | duvelisib 0.016 | gandotinib -0.023 | tozasertib 0.044 | doramapimod 0.018 | bafetinib -0.062 | [6] 0.011

ZNF148 (UniProt Q9UQR1)
inactive: alvocidib -0.322 | Tubastatin A -0.001 | [1] 0.009 | defactinib -0.043 | [2] -0.027 | encorafenib 0.024 | [3] -0.025 | alisertib -0.01 | gefitinib -0.218 | pictilisib -0.048 | crizotinib 0.079 | [5] 0.122 | duvelisib 0.028 | gandotinib -0.022 | tozasertib -0.036 | doramapimod 0.119 | bafetinib 0.099 | [6] 0.034

ZNF639 (UniProt Q9UID6)
inactive: alvocidib 0.005 | Tubastatin A 0.081 | [1] 0.007 | defactinib -0.017 | [2] -0.119 | alisertib -0.053 | gefitinib 0.053 | crizotinib -0.026 | [5] 0.032 | duvelisib 0.053 | gandotinib -0.064 | doramapimod -0.006 | [6] 0.055

ZNF593 (UniProt O00488)
inactive: alvocidib -0.005 | Tubastatin A -0.07 | [1] -0.135 | defactinib 0.044 | [2] -0.011 | encorafenib -0.006 | [3] -0.088 | [4] 0.231 | lapatinib -0.114 | pictilisib 0.078 | crizotinib 0.113 | [5] -0.087 | duvelisib 0.089 | gandotinib 0.016 | tozasertib 0.047 | doramapimod 0.033 | bafetinib 0.059 | [6] 0.045

ZMIZ1 (UniProt Q9ULJ6)
inactive: alvocidib -0.079 | Tubastatin A -0.006 | [1] -0.001 | defactinib 0 | [2] 0.048 | encorafenib 0.057 | [3] -0.023 | alisertib -0.067 | [4] -0.009 | gefitinib 0.002 | lapatinib 0.012 | pictilisib -0.031 | crizotinib 0.025 | [5] -0.177 | duvelisib -0.025 | gandotinib 0.04 | tozasertib -0.011 | doramapimod 0.021 | bafetinib -0.029 | [6] 0.091

ZMYM4 (UniProt Q5VZL5)
inactive: alvocidib -0.071 | Tubastatin A -0.089 | [1] -0.015 | defactinib 0.096 | [2] 0.188 | encorafenib 0.063 | [3] 0.016 | alisertib -0.004 | [4] 0.004 | gefitinib 0.047 | lapatinib -0.022 | pictilisib 0.037 | crizotinib -0.009 | [5] -0.07 | duvelisib -0.007 | gandotinib 0.004 | tozasertib 0.028 | doramapimod 0.031 | bafetinib 0.008 | [6] 0.042

ZNF451 (UniProt Q9Y4E5)
inactive: alvocidib -0.011 | Tubastatin A -0.121 | [1] 0.027 | defactinib 0 | [2] -0.014 | encorafenib -0.03 | [3] 0.07 | alisertib 0.008 | [4] -0.012 | gefitinib -0.009 | lapatinib -0.044 | pictilisib -0.054 | crizotinib -0.042 | [5] -0.053 | duvelisib 0.007 | gandotinib -0.069 | tozasertib -0.045 | doramapimod 0.052 | bafetinib -0.074 | [6] 0.003

ZZZ3 (UniProt Q8IYH5)
inactive: alvocidib 0.017 | Tubastatin A -0.112 | [1] -0.155 | defactinib 0.03 | [2] 0.092 | encorafenib -0.024 | [3] -0.202 | alisertib -0.015 | gefitinib -0.022 | pictilisib -0.161 | crizotinib 0.061 | [5] 0.003 | duvelisib -0.073 | gandotinib -0.005 | tozasertib 0.001 | doramapimod -0.102 | bafetinib 0.153 | [6] 0.055

ZNF8 (UniProt P17098)
inactive: alvocidib -0.104 | Tubastatin A -0.086 | [1] 0.148 | defactinib 0.067 | [2] -0.059 | alisertib -0.022 | gefitinib 0.246 | pictilisib 0.038 | crizotinib -0.202 | [5] -0.064 | duvelisib 0.112 | gandotinib -0.125 | doramapimod 0.199 | bafetinib 0.151 | [6] 0.009

2 consecutive entries from above, for reference:
ZMIZ1 (UniProt Q9ULJ6)
inactive: alvocidib -0.079 | Tubastatin A -0.006 | [1] -0.001 | defactinib 0 | [2] 0.048 | encorafenib 0.057 | [3] -0.023 | alisertib -0.067 | [4] -0.009 | gefitinib 0.002 | lapatinib 0.012 | pictilisib -0.031 | crizotinib 0.025 | [5] -0.177 | duvelisib -0.025 | gandotinib 0.04 | tozasertib -0.011 | doramapimod 0.021 | bafetinib -0.029 | [6] 0.091

ZMYM4 (UniProt Q5VZL5)
inactive: alvocidib -0.071 | Tubastatin A -0.089 | [1] -0.015 | defactinib 0.096 | [2] 0.188 | encorafenib 0.063 | [3] 0.016 | alisertib -0.004 | [4] 0.004 | gefitinib 0.047 | lapatinib -0.022 | pictilisib 0.037 | crizotinib -0.009 | [5] -0.07 | duvelisib -0.007 | gandotinib 0.004 | tozasertib 0.028 | doramapimod 0.031 | bafetinib 0.008 | [6] 0.042

Following part.

ZNF526 (UniProt Q8TF50)
inactive: alvocidib 0.005 | Tubastatin A -0.002 | [1] 0.036 | [2] 0.114 | alisertib 0.081 | gefitinib 0.021 | [5] -0.124 | duvelisib 0.171 | gandotinib -0.062 | [6] -0.038

ZNF845 (UniProt Q96IR2)
inactive: alvocidib 0.011 | Tubastatin A -0.149 | [1] 0.314 | defactinib -0.001 | [2] 0.093 | alisertib -0.018 | [4] 0.035 | gefitinib 0.035 | lapatinib 0.012 | pictilisib -0.013 | crizotinib 0.018 | [5] -0.069 | duvelisib -0.023 | gandotinib 0.015 | doramapimod 0.16 | bafetinib -0.031 | [6] 0.017

ZNF239 (UniProt Q16600)
inactive: alvocidib 0 | Tubastatin A 0.043 | [1] -0.034 | defactinib 0.08 | encorafenib 0.058 | [3] -0.008 | alisertib -0.039 | gefitinib -0.021 | pictilisib 0.091 | crizotinib 0.04 | [5] 0.126 | gandotinib -0.167 | tozasertib 0.074 | doramapimod -0.063 | bafetinib -0.109 | [6] -0.124

ZMYND8 isoform 19 (UniProt Q9ULU4)
inactive: alvocidib 0 | Tubastatin A -0.091 | [1] 0.017 | defactinib 0.104 | [2] -0.052 | encorafenib -0.002 | [3] 0.065 | alisertib 0.022 | [4] -0.046 | gefitinib -0.023 | lapatinib -0.017 | pictilisib -0.044 | crizotinib -0.109 | [5] -0.105 | duvelisib -0.006 | gandotinib 0.092 | tozasertib 0.035 | doramapimod 0.001 | bafetinib -0.028 | [6] 0.049

ZNF407 (UniProt Q9C0G0)
inactive: alvocidib -0.084 | Tubastatin A 0.099 | [1] 0.004 | defactinib -0.076 | [2] -0.149 | encorafenib -0.008 | [3] -0.035 | [4] 0.098 | lapatinib 0 | pictilisib -0.167 | [5] -0.096 | duvelisib 0.082 | gandotinib 0.044 | tozasertib 0.031 | bafetinib -0.243 | [6] 0.131
